At least one compound was matched to its structure with a doubt left.
Key:
[1] = test system: mouse; test: Primary observation (Irwin) test in the mouse; format: in vivo; settings: 10 mg/kg i.p., 5 mice per group
Text: The method, which detects the first toxic dose, the active dose-range and the principal effects of a test substance on behaviour and physiological function, follows that described by Irwin (Irwin S. Comprehensive observational assessment: A systematic quantitative procedure for assessing the behavioural and physiologic state of the mouse. Psychopharmacologia, 1968, 13, 222-257).
3 treated groups were compared with the same control at any one time. All animals within a treatment group were observed simultaneously.
Behavioural modifications, physiological and neurotoxicity symptoms, pupil diameter and rectal temperature were recorded according to a standardized observation grid derived from that of Irwin. The grid contains the following items: lethality*, convulsions*, tremor*, Straub*, sedation, excitation, abnormal gait* (rolling, tip-toe), jumps*, motor incoordination*, writhes*, piloerection*, stereotypies* (sniffing, chewing, head movements), head twitches*, scratching*, respiration*, aggressiveness*, fear, reactivity to touch, muscle tone, loss of righting reflex, ptosis, exopthalmos, loss of grasping, akinesia, catalepsy, loss of traction, loss of corneal reflex, analgesia, defecation, salivation, lacrimation, pupil diameter (Unit=1/45 mm) and rectal temperature. […]

Protein sequences, listed by entry. Tags and fused reporters are not part of them.
UniProt P31645, whole entry: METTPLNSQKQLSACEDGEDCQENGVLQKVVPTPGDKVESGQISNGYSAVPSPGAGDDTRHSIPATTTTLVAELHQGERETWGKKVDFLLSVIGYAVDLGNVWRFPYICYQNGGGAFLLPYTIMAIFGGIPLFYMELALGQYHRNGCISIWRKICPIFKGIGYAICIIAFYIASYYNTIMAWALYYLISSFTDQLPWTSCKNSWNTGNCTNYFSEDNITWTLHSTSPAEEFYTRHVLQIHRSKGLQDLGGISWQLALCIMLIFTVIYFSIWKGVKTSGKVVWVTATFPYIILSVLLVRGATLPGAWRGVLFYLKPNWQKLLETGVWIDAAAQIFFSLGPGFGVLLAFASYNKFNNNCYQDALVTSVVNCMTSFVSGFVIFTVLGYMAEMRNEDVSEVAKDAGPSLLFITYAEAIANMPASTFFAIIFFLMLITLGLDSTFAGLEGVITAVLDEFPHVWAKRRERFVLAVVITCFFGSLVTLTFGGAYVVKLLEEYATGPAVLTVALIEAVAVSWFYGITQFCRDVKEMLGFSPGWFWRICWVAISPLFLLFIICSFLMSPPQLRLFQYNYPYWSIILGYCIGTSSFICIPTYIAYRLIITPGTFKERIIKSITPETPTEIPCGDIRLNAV

[2] = biological target: T1, human serotonin re-uptake transporter (hSERT) (Homo sapiens, UniProt P31645); test: Serotonin uptake inhibition in HEK-293 cells expressing hSERT; format: cell-based; settings: result in words
T1 construct: host or cells: HEK-293
Text: HEK-293 cells stably expressing the human serotonin re-uptake transporter (hSERT) were obtained from R. Blakely, Vanderbilt University, USA. The cells were routinely grown in Dulbeco's Modified Eagles Medium (Bioconcept) containing 10% fetal calf serum, penicillin, streptomycin, L-glutamine and the antibiotic G418 and passaged by trypsinisation. On the day of assay, cells from 80% confluent flasks were harvested by gentle washing with warm phosphate buffered saline (PBS). […] Serotonin uptake into the cells was determined by addition of radio-labeled (3H) serotonin (GE Healthcare) to a concentration of 20 nM, and incubation for 40 minutes at 37° C. with gentle shaking. […] The incorporated serotonin retained on the plates was quantified by liquid scintillation counting using Microscint-40/Topcount (Perkin Elmer).
The effect of (−)-humulone and lupulone on the serotonin uptake was determined by their inclusion in the assay at a range of concentrations between 0.03 and 100 μM for 10 minutes prior to and during the addition of (3H) serotonin. […]
The calculated inhibition constants Ki, derived from the measured IC50 using the Cheng-Prusoff equation (Y. C. Cheng, W. H. Prusoff, Biochem. Pharmacol. 1973, 22, p. 3099-3108), for inhibition of serotonin uptake by (−)-humulone and lupulone are shown in Table 1.

`CC(C)=CCC1C(=O)C(C(=O)CC(C)C)=C(O)C(O)(CC=C(C)C)C1=O` (single isomer, unassigned; (-)) [(−)-humulone] was tested, and the “Observable effects in Irwin test” value [1] was “no observable effects” and the “Effect on serotonin re-uptake (hSERT dependent uptake of tritiated serotonin into transfected cells)” value [2] was “inhibited”.
